In ChEMBL document CHEMBL4316593 (Eur J Med Chem, 2019):
The source gives many values for each of these; only a part stands here.

Experiments:
Assay type in all cases: cell-based
Conditions in all cases: U-87MG ATCC
[1] = Inhibition of RTK/PI3K/AKT/mTOR signaling in human U87 cells assessed as down regulation of ALDH4A1 gene expression at cytotoxic IC50 measured after 48 hrs relative to control
[2] = Inhibition of RTK/PI3K/AKT/mTOR signaling in human U87 cells assessed as down regulation of POLB gene expression at cytotoxic IC50 measured after 48 hrs relative to control
[3] = Inhibition of RTK/PI3K/AKT/mTOR signaling in human U87 cells assessed as down regulation of SUPT6H gene expression at cytotoxic IC50 measured after 48 hrs relative to control
[4] = Inhibition of RTK/PI3K/AKT/mTOR signaling in human U87 cells assessed as down regulation of CELF1 gene expression at cytotoxic IC50 measured after 48 hrs relative to control
[5] = Inhibition of RTK/PI3K/AKT/mTOR signaling in human U87 cells assessed as down regulation of ZFAND3 gene expression at cytotoxic IC50 measured after 48 hrs relative to control
[6] = Inhibition of RTK/PI3K/AKT/mTOR signaling in human U87 cells assessed as up regulation of UDP-glucose glycoprotein glucosyltransferase 2 gene expression at cytotoxic IC50 measured after 48 hrs relative to control
[7] = Inhibition of RTK/PI3K/AKT/mTOR signaling in human U87 cells assessed as down regulation of FAM46C gene expression at cytotoxic IC50 measured after 48 hrs relative to control
[8] = Inhibition of RTK/PI3K/AKT/mTOR signaling in human U87 cells assessed as up regulation of MLEC gene expression at cytotoxic IC50 measured after 48 hrs relative to control
[9] = Inhibition of RTK/PI3K/AKT/mTOR signaling in human U87 cells assessed as up regulation of NYAP1 gene expression at cytotoxic IC50 measured after 48 hrs relative to control
[10] = Inhibition of RTK/PI3K/AKT/mTOR signaling in human U87 cells assessed as down regulation of GBA2 gene expression at cytotoxic IC50 measured after 48 hrs relative to control
[11] = Inhibition of RTK/PI3K/AKT/mTOR signaling in human U87 cells assessed as down regulation of ARHGEF26 gene expression at cytotoxic IC50 measured after 48 hrs relative to control
[12] = Inhibition of RTK/PI3K/AKT/mTOR signaling in human U87 cells assessed as down regulation of FBXL18 gene expression at cytotoxic IC50 measured after 48 hrs relative to control
[13] = Inhibition of RTK/PI3K/AKT/mTOR signaling in human U87 cells assessed as down regulation of PSMD3 gene expression at cytotoxic IC50 measured after 48 hrs relative to control
[14] = Inhibition of RTK/PI3K/AKT/mTOR signaling in human U87 cells assessed as up regulation of WD repeat domain 60 gene expression at cytotoxic IC50 measured after 48 hrs relative to control
[15] = Inhibition of RTK/PI3K/AKT/mTOR signaling in human U87 cells assessed as down regulation of FAM120AOS gene expression at cytotoxic IC50 measured after 48 hrs relative to control
[16] = Inhibition of RTK/PI3K/AKT/mTOR signaling in human U87 cells assessed as down regulation of GPAM gene expression at cytotoxic IC50 measured after 48 hrs relative to control
[17] = Inhibition of RTK/PI3K/AKT/mTOR signaling in human U87 cells assessed as up regulation of thymosin beta 10 gene expression at cytotoxic IC50 measured after 48 hrs relative to control
[18] = Inhibition of RTK/PI3K/AKT/mTOR signaling in human U87 cells assessed as up regulation of NADPH oxidase activator 1 gene expression at cytotoxic IC50 measured after 48 hrs relative to control
[19] = Inhibition of RTK/PI3K/AKT/mTOR signaling in human U87 cells assessed as down regulation of ARIH1 gene expression at cytotoxic IC50 measured after 48 hrs relative to control
[20] = Inhibition of RTK/PI3K/AKT/mTOR signaling in human U87 cells assessed as down regulation of NDUFA4 gene expression at cytotoxic IC50 measured after 48 hrs relative to control
[21] = Inhibition of RTK/PI3K/AKT/mTOR signaling in human U87 cells assessed as up regulation of CACNB4 gene expression at cytotoxic IC50 measured after 48 hrs relative to control
[22] = Inhibition of RTK/PI3K/AKT/mTOR signaling in human U87 cells assessed as up regulation of lon peptidase 1, mitochondrial gene expression at cytotoxic IC50 measured after 48 hrs relative to control
[23] = Inhibition of RTK/PI3K/AKT/mTOR signaling in human U87 cells assessed as down regulation of SNX1 gene expression at cytotoxic IC50 measured after 48 hrs relative to control
[24] = Inhibition of RTK/PI3K/AKT/mTOR signaling in human U87 cells assessed as up regulation of SMTNL2 gene expression at cytotoxic IC50 measured after 48 hrs relative to control
[25] = Inhibition of RTK/PI3K/AKT/mTOR signaling in human U87 cells assessed as down regulation of XRRA1 gene expression at cytotoxic IC50 measured after 48 hrs relative to control
[26] = Inhibition of RTK/PI3K/AKT/mTOR signaling in human U87 cells assessed as down regulation of PRDM2 gene expression at cytotoxic IC50 measured after 48 hrs relative to control
[27] = Inhibition of RTK/PI3K/AKT/mTOR signaling in human U87 cells assessed as up regulation of PRPH gene expression at cytotoxic IC50 measured after 48 hrs relative to control
[28] = Inhibition of RTK/PI3K/AKT/mTOR signaling in human U87 cells assessed as down regulation of CLTC gene expression at cytotoxic IC50 measured after 48 hrs relative to control
[29] = Inhibition of RTK/PI3K/AKT/mTOR signaling in human U87 cells assessed as up regulation of LIPG gene expression at cytotoxic IC50 measured after 48 hrs relative to control
[30] = Inhibition of RTK/PI3K/AKT/mTOR signaling in human U87 cells assessed as up regulation of SMIM10L2A gene expression at cytotoxic IC50 measured after 48 hrs relative to control
[31] = Inhibition of RTK/PI3K/AKT/mTOR signaling in human U87 cells assessed as down regulation of LRWD1 gene expression at cytotoxic IC50 measured after 48 hrs relative to control
[32] = Inhibition of RTK/PI3K/AKT/mTOR signaling in human U87 cells assessed as up regulation of UQCRC2 gene expression at cytotoxic IC50 measured after 48 hrs relative to control

Question: For `CC(=O)C(=NNc1ccccc1C#N)C(C)=O`, which log2FC [1] is on record?
Answer: The log2FC was -1.05.

Question: And the log2FC [2]?
Answer: Its log2FC is -0.827.

Question: What about the log2FC [3] of the same compound?
Answer: The log2FC was -0.541.

Question: What about the log2FC [4] of the same compound?
Answer: The log2FC was -0.445.

Question: What about the log2FC [5] of the same compound?
Answer: The log2FC was -0.418.

Question: And the log2FC [6]?
Answer: Its log2FC is 1.05.

Question: What about the log2FC [7] of the same compound?
Answer: The log2FC was -1.19.

Question: And the log2FC [8]?
Answer: The log2FC was 0.414.

Question: And the log2FC [9]?
Answer: Its log2FC is 2.31.

Question: And the log2FC [10]?
Answer: The log2FC was -0.449.

Question: And the log2FC [11]?
Answer: The log2FC was -1.79.

Question: What about the log2FC [12] of the same compound?
Answer: Its log2FC is -1.26.

Question: And the log2FC [13]?
Answer: Its log2FC is -0.602.

Question: What about the log2FC [14] of the same compound?
Answer: Its log2FC is 1.47.

Question: And the log2FC [15]?
Answer: Its log2FC is -0.687.

Question: And the log2FC [16]?
Answer: Its log2FC is -1.64.

Question: And the log2FC [17]?
Answer: The log2FC was 1.12.

Question: What about the log2FC [18] of the same compound?
Answer: The log2FC was 1.37.

Question: What about the log2FC [19] of the same compound?
Answer: Its log2FC is -0.609.

Question: And the log2FC [20]?
Answer: The log2FC was -0.655.

Question: What about the log2FC [21] of the same compound?
Answer: The log2FC was 2.11.

Question: What about the log2FC [22] of the same compound?
Answer: Its log2FC is 1.25.

Question: And the log2FC [23]?
Answer: The log2FC was -0.481.

Question: And the log2FC [24]?
Answer: Its log2FC is 2.19.

Question: What about the log2FC [25] of the same compound?
Answer: The log2FC was -1.06.

Question: What about the log2FC [26] of the same compound?
Answer: Its log2FC is -1.4.

Question: And the log2FC [27]?
Answer: The log2FC was 1.75.

Question: And the log2FC [28]?
Answer: The log2FC was -0.753.

Question: And the log2FC [29]?
Answer: The log2FC was 1.76.

Question: And the log2FC [30]?
Answer: The log2FC was 2.

Question: And the log2FC [31]?
Answer: Its log2FC is -0.821.

Question: And the log2FC [32]?
Answer: The log2FC was 0.557.
